From PMC2193228
Results are given in words; binding and its absence hold for the method and conditions named. In cells and extracts the contact can be indirect. Some entries that bind do so weakly or less than the wild type. For part of these data: Sequences can lack the tags named with a protein.

Sequences of proteins named here, by UniProt entry; tags and fusion partners are left off.
UniProt Q9Y812: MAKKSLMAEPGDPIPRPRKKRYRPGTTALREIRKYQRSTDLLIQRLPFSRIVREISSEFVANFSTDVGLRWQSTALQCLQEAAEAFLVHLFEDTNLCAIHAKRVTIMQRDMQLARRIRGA

How the values were obtained:
[1] = biological target: Sim3 (S. pombe (endogenous in S. pombe)) (UniProt Q9USQ4); assay: co-IP; S. pombe cell extracts; IP with sheep anti-GFP or rabbit anti-Sim3, western with rabbit anti-Sim3 or rabbit anti-GFP
Sim3-143-GFP (S. pombe) = Sim3-143-GFP (S. pombe) (UniProt Q9USQ4); assay: co-IP; S. pombe cell extracts; IP with sheep anti-GFP or mouse anti-myc (9E10), western with rabbit anti-GFP or rabbit anti-myc; cells grown at 25°C or 36°C (6 hr)
Sim3-GFP (S. pombe) = Sim3-GFP (S. pombe) (UniProt Q9USQ4); assay: as above

How did the binding [1] turn out when “GFP-CENP-A^Cnp1 (from UniProt Q9Y812 1-120)” was run?
The binding was “binds”.

“myc-CENP-A^Cnp1 (from UniProt Q9Y812 1-120)” was tested. Which binding (Sim3-143-GFP (S. pombe)) did it give?
Its binding is “binds”.

And the binding (Sim3-GFP (S. pombe))?
Its binding is “binds”.
